The values that follow come from patent US4491631A, “Assay method for lipid component, assay composition, and process for production of enzyme used therefor” (Toyo Jozo Kabushiki Kaisha, priority 1981, dated 1985).

For the data set, the system named is acyl-CoA synthetase, acyl-CoA oxidase and multi-active enzyme (β-oxidation cycle). The data set is described as follows: Quantitative determination of various fatty acids with the composition for assay (reduced NAD, 340 nm). The settings on record: 25 μl sample of fatty acid (0.05 μmole) in 3.00 ml composition, 37° C., 5 minutes. In kind it is biochemical.
Take `CCCCCCCCCC(=O)O` [Capric acid]: the OD340nm came to 0.267.

In turn, `CCCCCC(=O)O` [Caproic acid] came in with an OD340nm of 0.089. Then `CCCCCCCC(=O)O` [Caprylic acid], with 0.175. Then `CCCCCCCCCCCC(=O)O` [Lauric acid], with 0.356. Turning to `CC/C=C\C/C=C\C/C=C\CCCCCCCC(=O)O` [Linolenic acid], the OD340nm is recorded as 0.630. The molecule `CCCCC/C=C\C/C=C\CCCCCCCC(=O)O` [Linolic acid] came in with an OD340nm of 0.619. Then `CCCCCCCCCCCCCC(=O)O` [Myristic acid], with 0.444; and `CCCCCCCC/C=C\CCCCCCCC(=O)O` [Oleic acid], with 0.628; and `CCCCCCCCCCCCCCCC(=O)O` [Palmitic acid], with 0.530.

Take `CCCCCC/C=C\CCCCCCCC(=O)O` [Palmitoleic acid]: the OD340nm was determined as 0.529. Take `CCCCCCCCCCCCCCCCCC(=O)O` [Stearic acid]: the OD340nm is given as 0.622.
